Assay results as given in patent US20030195242A1, “Use of Cox-2 inhibitors to prevent recurrences of herpesvirus infections” (priority 2002, published 2003).
At least one structure is not confirmed: it was looked up by name or label, or the drawing left a doubt. Marks after values point to notes of the source that are not given here.

Columns and labels:
[1] = test system: McKrae strain of HSV-1; test: Heat-stress reactivation of latent HSV-1 in mice: infectious virus in the trigeminal ganglia (celecoxib); format: in vivo, BALB/c mice; settings: stressed, 24 h after heat stress
Excerpt: (§1) To test the effect of a selective COX-2 inhibitor on recurrence of HSV, female BALB/c mice (The Jackson Laboratory, Bar Harbor, Me.) at 4 weeks of age were used. The strain of HSV and the method of propagation were as described in Example 1.
(§2) The mice were infected by the topical ocular route, and the establishment of a corneal infection was documented by slit lamp examination and ocular swabs on day 3 after infection. Only animals which were successfully infected were retained for use in these experiments. Thirty days after infection, groups of 15 latently infected and 15 uninfected mice were treated with the COX 2 inhibitor, celecoxib (G. D. Searle & Co., Skokie, Ill.). The dose of celecoxib that would inhibit viral reactivation was determined in a preliminary experiment in which groups of mice were injected intraperitoneally with 0.1, 0.5, 1.0, and 5.0 mg of celecoxib four times daily. The mice were treated one day before heat stress and the day of the heat stress. […] This dosage was used in all subsequent experiments.
Two days prior to hyperthermic stress, uninfected mice and latently infected mice were treated four times daily with celecoxib at a concentration of 0.5 mg per treatment. […] Units of Infectious virus were recorded as units of cytopathic effect over a period of seven days. […] The units of cytopathic effect were recorded over a seven day incubation period. […]

[2] = test system: McKrae strain of HSV-1; test: Heat-stress reactivation of latent HSV-1 in mice: infectious virus on the ocular surface (celecoxib); format: in vivo, BALB/c mice; settings: for Infectious Virus on the Ocular Surface (mice positive/total): stressed, 24 h after heat stress
Excerpt: as §1, §2
Two days prior to hyperthermic stress, uninfected mice and latently infected mice were treated four times daily with celecoxib at a concentration of 0.5 mg per treatment. The celecoxib suspension was given intraperitoneally in some groups of mice and orally in others. This treatment was continued on the day that animals were heat stressed by immersion into 43° C. water for 10 minutes. Twenty-four hours after the hyperthermic stress, the eyes were swabbed to culture any infectious virus, and the mice killed to collect the trigeminal ganglia. Ocular swabs were incubated in culture medium which was then transferred to Vero cell monolayers in 96 well culture plates. Units of Infectious virus were recorded as units of cytopathic effect over a period of seven days. Units of cytopathic effect were the number of plaques or dead Vero cells caused by the virus, i.e., one viral particle causes one unit of cytopathic effect (a plaque.). […] The units of cytopathic effect were recorded over a seven day incubation period. […]

[3] = 0.5 mg celecoxib four times daily IP for two days
[4] = 0.5 mg celecoxib four times daily orally for two days

Cc1ccc(-c2cc(C(F)(F)F)nn2-c2ccc(S(N)(=O)=O)cc2)cc1 [celecoxib]
Infectious Virus in the Trigeminal Ganglia (mice positive/total) [1, 3]: 5/12‡
Infectious Virus in the Trigeminal Ganglia (mice positive/total) [1, 4]: 4/12‡
Effectiveness in preventing viral recurrence compared with aspirin ([2]; heat-stress mouse model, versus nonspecific cyclooxygenase inhibitor aspirin): more effective
Infectious Virus on the Ocular Surface (mice positive/total) [2, 3]: 5/14‡
Infectious Virus on the Ocular Surface (mice positive/total) [2, 4]: 5/12‡
